± gives the standard deviation. Some of the results follow. Many of these values have a large error.
system: EfPiwi piRISC loaded with L1MC piRNA (26 nt); test: pre-steady-state target cleavage rate (min^-1); guide: L1MC piRNA 5'p-UAACUAAAUACUAUGCAAGCUGUAGG; MIWI and MILI are mouse PIWI proteins and EfPiwi is from a freshwater sponge; tags in brackets are library labels; higher = faster piRNA-guided slicing of the target; details: auxiliary factor: 500 nM Ephydatia muelleri Gtsf1
Summary of the method: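 A transcribed, DNA-blocked target RNA library […] was incubated at 33 °C for 0–8 or 0–960 min with 1 nM active affinity-purified piRISC carrying one synthetic guide, in HEPES–potassium acetate buffer with or without 500 nM GTSF1 partner protein. Uncleaved targets were then sequenced and normalised to depth and to weakly complementary targets. Data from three trials were pooled, with k3 capped at 0.0001 min^-1, and a burst-and-steady-state fit yielded the pre-steady-state cleavage rate.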

Sequence	pre-steady-state target cleavage rate
UCCUCCUACACUUGCAUAGUAUUUAGUUA	0.049 ± 0.015
UCCUGGAUGAGCUUGCACAGUAUUUAGUUA	0.0152 ± 0.0046
UCCUGGAUGAGCAUGCAAAGUAUUUAGUUA	0.00414 ± 0.0036
UCCUGGUACAGCUUGCAAAGAAUUUAGUUA	0.00126 ± 0.0046
UCCUGGUACACUUGCAUAGUAUUUAGUUA	0.00407 ± 0.0024
UCCUGGAUGUGCUUGCAUAGUAUUUUGUUA	0.00341 ± 0.0026
UCCUCCUACAGCAUGCAUAGUAUUAAGUUA	0.00654 ± 0.0033
UCCUGGUACAGUUGCAUAGUAUUUAGUUA	0.0124 ± 0.0051
UCCUGGUACAGCUUGCAUAGUAUUUAUUUA	0.00732 ± 0.0063
UCCUGGAUGACCUUGCAUUGUAUUUAGUUA	0.000597 ± 0.01
UCCUGGAACAGCUUGCAUAGUAUUAAGUUA	0.00549 ± 0.0022
UCCUGGAACAUCUUGCAUAGUAUUUAGUUA	0.0653 ± 0.016
UCCUCCUAGACCUUGCAUAGUAUUUAGUUA	0.141 ± 0.041
UCCUGGUAGUCCUUGCAUAGUAUUUAGUUA	0.00556 ± 0.0026
UCCUGGAACAGCAUGCAUAGUAUUUAGUUA	0.0466 ± 0.011
UCCUGGAUGAGCUUGCAAAGUAUUUAGUAA	0.00293 ± 0.0033

Sequence	pre-steady-state target cleavage rate
UCCUCCUACAGCUUGCACAGUAUUUAGUUA	0.0475 ± 0.013
UCCUCCUACAGCUUGCAUAGUAGUUAGUUA	0.00786 ± 0.0026
UCCUGGAUGUCGAUGGAUAGUAUUAAGUUA	0.000154 ± 0.018
UCCUCCUACAGCAUGCUUAGUAUUUAGUUA	0.0116 ± 0.0032
UCCUCCUACAGCUUGCAUAGUAUUUACUAA	0.00569 ± 0.003
UCCUGGAACAGCUCGCAUAGUAUUUAGUUA	0.0171 ± 0.0048
UCCUCGUACAGCUUGCAUAGUAUUUAGUAA	0.00794 ± 0.0029
UCCUGGAUCAGCAUGCAUAGUAAUUAGUUA	0.00437 ± 0.0016
UCCUCCUACAGCUUGGAUUGUAUUUAGUUA	0.0225 ± 0.0082
UCCUGGAUGUCCUUGCAUAGUAUUUAAGUUA	0.0217 ± 0.0093
UCCUCCUACAGCUAUGCAUAGUAUUUAGUUA	0.0164 ± 0.0055
UCCUGGAUCAGCUUGCAAAGUAUUUACUUA	0.000995 ± 0.0053
UCCUCCAACAGCUUGCAAAGUAUUUAGUUA	0.0132 ± 0.0038
UCCUCCUACUCCUUGCAUAGUAUUUAGUAA	0.00518 ± 0.0033
UCCUGGAUCAGCUGUGCAUAGUAUUUAGUUA	0.0791 ± 0.016
UCCUGGAUGUCCUGCAUAGUAUUUAGUUA	0.00358 ± 0.0026

Three records drawn at random from those above, as already listed:
Sequence	pre-steady-state target cleavage rate
UCCUCCUACAGCUAUGCAUAGUAUUUAGUUA	0.0164 ± 0.0055
UCCUGGAACAGCUCGCAUAGUAUUUAGUUA	0.0171 ± 0.0048
UCCUCCUACAGCUUGCAUAGUAGUUAGUUA	0.00786 ± 0.0026

same assay, conditions: auxiliary factor: none (no Gtsf1)

Sequence	pre-steady-state target cleavage rate
UCCUGGUACAGCUUGGAUAGUAAUUAGUUA	0.00127 ± 0.0088
UCCUGGAAGAGGUUGCAUAGUAUUUAGUUA	0.00126 ± 0.0094
UCCUGGUACAGCUUGCUUACUAUUUAGUUA	0.000749 ± 0.011
UCCUGGUACAGCUUGCACAGUAUUUAGUUA	0.00179 ± 0.0065
UCCUGGAUGUCGUUGCAUACUAUAUAGUUA	0.000123 ± 0.08
UCCUGGUACAGCUUGCAUAGUAUAAUGUUA	0.00055 ± 0.014
UCCUGCUACAGUCUUGCAUAGUAUUUAGUUA	0.000641 ± 0.01
UCCUCCUACAGCUUGCAUAGUAUAUAGUAA	0.000383 ± 0.013
